From paper PMC5672931 (British Journal of Cancer, 2017) come the findings set out here.

In general, half-life refers to the time in which the quantity being followed falls by half. The low end stands for rapid decline, the high end for slow decline.

The nature of the series: pharmacokinetics, plasma concentrations by LC-MS/MS. Conditions: human, intravenous, 1.85 mg m^−2.

In turn, `CCc1cnn2c(NCc3ccc[n+]([O-])c3)cc(N3CCCC[C@H]3CCO)nc12` [dinaciclib, Dinaciclib] gave a half-life of 1.42 h.
